Data as given in the supplement of paper PMC10849652.
The other results are listed elsewhere or left out.

Chains of the proteins cited; added tags and fusions are not shown. Lines headed by an entry give the natural chain unless they say otherwise; changes in a name come on top.
UniProt Q3ZAQ7: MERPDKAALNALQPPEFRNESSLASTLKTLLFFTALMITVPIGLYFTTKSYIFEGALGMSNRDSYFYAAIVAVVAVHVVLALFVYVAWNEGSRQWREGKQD
UniProt O75717: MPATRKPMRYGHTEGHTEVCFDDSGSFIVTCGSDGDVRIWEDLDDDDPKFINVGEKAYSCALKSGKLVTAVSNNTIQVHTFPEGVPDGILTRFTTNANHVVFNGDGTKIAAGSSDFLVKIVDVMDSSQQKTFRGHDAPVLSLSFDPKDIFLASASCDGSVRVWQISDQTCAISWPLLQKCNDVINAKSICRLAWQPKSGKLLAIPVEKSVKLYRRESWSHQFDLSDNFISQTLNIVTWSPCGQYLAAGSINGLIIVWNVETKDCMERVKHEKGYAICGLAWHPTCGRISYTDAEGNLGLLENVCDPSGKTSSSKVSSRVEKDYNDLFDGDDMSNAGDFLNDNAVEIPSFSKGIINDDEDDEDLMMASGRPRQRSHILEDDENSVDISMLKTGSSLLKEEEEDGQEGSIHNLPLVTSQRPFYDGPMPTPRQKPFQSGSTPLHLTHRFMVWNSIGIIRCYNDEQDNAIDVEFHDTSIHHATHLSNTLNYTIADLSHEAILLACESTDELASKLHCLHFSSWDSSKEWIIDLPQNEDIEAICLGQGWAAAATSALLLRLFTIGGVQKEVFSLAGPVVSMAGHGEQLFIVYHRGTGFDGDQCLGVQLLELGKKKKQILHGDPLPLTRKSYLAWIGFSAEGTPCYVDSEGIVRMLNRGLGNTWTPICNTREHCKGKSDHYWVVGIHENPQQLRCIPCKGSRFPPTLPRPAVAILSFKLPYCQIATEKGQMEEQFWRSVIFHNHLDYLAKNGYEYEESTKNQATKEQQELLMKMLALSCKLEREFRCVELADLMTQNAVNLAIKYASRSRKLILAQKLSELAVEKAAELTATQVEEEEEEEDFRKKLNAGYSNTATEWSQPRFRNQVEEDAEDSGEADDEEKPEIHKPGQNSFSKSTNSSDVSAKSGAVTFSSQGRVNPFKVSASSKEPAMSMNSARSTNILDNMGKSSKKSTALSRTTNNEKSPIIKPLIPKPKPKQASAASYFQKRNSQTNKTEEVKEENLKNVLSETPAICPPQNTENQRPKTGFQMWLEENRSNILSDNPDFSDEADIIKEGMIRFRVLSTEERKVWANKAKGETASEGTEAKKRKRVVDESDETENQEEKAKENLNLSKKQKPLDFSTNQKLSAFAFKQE
UniProt P30291: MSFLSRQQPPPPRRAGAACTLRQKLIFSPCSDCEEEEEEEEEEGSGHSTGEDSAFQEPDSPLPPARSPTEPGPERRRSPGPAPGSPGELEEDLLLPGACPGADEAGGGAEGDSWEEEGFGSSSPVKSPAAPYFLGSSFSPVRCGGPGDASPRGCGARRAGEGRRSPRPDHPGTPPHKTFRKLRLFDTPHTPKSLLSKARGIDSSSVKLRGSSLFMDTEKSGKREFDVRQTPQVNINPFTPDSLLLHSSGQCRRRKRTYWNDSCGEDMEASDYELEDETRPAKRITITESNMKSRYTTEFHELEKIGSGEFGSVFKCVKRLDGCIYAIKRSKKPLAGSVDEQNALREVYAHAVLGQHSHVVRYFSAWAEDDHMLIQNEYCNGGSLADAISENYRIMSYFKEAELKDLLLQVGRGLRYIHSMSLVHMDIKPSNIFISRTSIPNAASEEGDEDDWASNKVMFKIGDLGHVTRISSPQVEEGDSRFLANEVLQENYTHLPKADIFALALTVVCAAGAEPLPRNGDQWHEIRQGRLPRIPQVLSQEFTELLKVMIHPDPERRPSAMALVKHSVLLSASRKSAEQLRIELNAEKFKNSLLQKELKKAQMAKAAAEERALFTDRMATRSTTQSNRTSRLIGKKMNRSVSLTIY
UniProt Q4G0F5, whole entry, looked up: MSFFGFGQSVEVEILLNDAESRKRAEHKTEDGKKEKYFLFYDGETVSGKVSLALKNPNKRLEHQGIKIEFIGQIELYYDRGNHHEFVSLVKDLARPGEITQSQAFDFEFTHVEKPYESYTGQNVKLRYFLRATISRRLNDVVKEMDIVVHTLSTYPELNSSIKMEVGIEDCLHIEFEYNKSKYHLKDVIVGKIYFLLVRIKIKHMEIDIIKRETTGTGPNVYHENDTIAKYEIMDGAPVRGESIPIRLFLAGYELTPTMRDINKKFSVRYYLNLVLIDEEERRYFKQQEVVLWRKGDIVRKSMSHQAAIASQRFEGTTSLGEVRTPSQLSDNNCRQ
UniProt Q9HAD4: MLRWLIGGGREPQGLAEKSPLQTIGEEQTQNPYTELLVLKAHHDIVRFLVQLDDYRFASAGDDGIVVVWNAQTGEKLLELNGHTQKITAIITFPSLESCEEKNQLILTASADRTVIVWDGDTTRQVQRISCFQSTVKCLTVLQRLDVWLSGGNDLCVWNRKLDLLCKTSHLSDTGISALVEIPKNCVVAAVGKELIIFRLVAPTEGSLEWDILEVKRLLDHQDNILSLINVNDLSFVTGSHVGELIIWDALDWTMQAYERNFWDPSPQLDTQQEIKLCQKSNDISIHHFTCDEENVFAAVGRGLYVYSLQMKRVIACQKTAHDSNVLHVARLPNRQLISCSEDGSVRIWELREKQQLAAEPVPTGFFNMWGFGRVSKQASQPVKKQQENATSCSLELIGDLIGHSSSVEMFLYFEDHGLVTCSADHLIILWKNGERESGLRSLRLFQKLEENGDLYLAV
UniProt Q9Y4E6, whole entry, looked up: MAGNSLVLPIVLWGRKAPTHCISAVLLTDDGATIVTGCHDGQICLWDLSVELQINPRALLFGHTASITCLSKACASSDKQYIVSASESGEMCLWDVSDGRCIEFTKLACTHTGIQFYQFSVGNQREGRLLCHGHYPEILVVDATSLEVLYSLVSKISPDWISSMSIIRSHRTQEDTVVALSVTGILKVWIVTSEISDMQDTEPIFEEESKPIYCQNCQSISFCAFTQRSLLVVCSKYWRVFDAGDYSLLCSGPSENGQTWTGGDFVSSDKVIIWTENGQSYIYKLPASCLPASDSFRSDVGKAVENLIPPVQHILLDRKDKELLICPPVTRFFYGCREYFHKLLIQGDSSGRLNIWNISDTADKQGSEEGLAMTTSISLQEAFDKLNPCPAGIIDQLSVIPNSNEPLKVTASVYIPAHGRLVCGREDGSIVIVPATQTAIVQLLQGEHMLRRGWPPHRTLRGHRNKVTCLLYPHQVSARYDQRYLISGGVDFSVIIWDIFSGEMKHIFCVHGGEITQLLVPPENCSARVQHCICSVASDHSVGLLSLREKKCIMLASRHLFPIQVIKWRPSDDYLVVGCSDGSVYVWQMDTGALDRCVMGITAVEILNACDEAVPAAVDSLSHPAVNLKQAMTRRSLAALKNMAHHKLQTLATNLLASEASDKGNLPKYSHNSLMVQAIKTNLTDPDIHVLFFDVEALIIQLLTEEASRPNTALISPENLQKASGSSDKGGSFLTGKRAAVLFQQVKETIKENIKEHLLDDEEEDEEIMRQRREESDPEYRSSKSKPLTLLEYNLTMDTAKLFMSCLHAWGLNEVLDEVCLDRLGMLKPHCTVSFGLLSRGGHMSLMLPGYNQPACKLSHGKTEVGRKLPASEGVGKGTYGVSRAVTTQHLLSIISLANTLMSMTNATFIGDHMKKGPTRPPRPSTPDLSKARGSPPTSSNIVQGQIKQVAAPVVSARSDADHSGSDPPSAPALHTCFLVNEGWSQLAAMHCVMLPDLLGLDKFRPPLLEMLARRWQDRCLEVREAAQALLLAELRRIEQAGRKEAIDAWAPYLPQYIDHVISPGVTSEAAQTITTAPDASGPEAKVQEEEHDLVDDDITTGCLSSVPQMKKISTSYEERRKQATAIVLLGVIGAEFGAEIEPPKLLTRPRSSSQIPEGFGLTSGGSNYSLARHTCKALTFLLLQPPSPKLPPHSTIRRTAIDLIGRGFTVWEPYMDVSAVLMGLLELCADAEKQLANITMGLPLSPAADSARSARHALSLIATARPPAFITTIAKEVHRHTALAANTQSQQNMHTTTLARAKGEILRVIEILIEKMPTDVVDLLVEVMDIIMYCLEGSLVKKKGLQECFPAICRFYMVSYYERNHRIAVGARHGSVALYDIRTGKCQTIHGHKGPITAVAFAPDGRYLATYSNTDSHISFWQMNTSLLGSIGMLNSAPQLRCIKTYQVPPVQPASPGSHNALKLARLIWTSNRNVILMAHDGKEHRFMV
UniProt Q9Y3C0: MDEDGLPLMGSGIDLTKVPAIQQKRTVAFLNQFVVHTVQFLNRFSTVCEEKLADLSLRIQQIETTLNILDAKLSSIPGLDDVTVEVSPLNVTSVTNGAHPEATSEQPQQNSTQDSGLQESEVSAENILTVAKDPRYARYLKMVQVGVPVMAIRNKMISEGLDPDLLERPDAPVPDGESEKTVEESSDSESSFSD
UniProt Q562E7: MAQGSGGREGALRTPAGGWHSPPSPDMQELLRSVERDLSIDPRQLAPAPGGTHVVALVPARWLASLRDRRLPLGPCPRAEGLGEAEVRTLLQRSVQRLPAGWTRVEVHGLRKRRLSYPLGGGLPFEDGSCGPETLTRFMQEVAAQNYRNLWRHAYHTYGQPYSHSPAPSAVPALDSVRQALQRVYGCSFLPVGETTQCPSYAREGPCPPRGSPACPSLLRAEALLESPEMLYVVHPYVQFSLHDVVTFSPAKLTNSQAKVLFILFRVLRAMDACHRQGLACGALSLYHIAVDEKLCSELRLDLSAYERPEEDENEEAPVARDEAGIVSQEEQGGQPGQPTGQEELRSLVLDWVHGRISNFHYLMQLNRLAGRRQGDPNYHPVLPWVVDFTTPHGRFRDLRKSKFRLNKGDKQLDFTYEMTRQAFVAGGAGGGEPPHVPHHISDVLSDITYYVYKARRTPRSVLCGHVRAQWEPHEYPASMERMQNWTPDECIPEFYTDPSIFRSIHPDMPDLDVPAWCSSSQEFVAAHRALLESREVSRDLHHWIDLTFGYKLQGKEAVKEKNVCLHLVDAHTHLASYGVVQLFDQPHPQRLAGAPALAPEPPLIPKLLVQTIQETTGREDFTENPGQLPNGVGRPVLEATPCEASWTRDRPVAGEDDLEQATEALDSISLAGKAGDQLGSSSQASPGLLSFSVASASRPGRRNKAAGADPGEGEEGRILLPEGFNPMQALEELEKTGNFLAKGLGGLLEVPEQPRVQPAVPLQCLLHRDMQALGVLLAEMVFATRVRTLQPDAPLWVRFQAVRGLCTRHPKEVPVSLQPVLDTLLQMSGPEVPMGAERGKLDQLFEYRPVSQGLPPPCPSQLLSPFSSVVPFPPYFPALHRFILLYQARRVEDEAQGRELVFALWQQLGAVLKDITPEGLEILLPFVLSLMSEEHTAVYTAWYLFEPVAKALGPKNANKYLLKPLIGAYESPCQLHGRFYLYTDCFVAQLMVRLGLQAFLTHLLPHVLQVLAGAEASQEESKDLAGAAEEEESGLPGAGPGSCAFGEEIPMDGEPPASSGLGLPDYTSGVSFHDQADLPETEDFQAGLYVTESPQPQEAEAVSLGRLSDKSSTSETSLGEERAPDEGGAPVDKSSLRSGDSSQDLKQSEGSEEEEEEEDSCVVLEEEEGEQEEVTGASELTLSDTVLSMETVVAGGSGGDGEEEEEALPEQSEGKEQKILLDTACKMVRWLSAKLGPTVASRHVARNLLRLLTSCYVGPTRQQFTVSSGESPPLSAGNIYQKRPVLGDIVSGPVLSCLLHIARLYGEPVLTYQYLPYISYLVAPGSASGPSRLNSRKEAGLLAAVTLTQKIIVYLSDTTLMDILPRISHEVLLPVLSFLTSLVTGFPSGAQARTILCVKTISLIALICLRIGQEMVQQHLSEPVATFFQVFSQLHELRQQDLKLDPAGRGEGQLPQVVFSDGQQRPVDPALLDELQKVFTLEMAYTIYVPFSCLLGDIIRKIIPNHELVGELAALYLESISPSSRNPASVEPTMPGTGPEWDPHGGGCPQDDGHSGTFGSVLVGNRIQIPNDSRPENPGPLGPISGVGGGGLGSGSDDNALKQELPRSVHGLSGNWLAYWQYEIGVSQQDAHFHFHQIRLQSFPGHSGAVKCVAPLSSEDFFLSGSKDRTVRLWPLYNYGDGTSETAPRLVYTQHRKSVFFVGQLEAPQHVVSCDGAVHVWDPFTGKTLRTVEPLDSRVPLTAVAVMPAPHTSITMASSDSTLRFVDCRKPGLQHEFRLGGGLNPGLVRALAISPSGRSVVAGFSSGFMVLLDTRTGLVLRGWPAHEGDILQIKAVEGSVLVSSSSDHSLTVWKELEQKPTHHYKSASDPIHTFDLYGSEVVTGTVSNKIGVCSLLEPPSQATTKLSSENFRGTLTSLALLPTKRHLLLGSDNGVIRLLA

Experiments:
Experiment in all cases: log2 fold change, soluble protein after heating vs DMSO (PISA); higher = thermal stabilisation; K562 lysate, 10 uM; active = over 0.2 and 3.5 SD of the protein, either way, in both replicates (recomputed)
[1] = compound: C#Cc1cccc(Nc2ncnc3cc(OCCOC)c(OCCOC)cc23)c1 [erlotinib]
How it was run: (§1)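 Quantification was by TMTpro 16plex LC-MS/MS with equalised channel sums, applied to the supernatant after 21,000xg for 90 min. Samples were crude K562 extract at 1 mg/mL protein in PBS pH 7.4 with 1 mM MgCl2, treated with 10 μM compound for 30 min, heated for 3 min across 48°C-58°C, pooled and brought to 0.5% NP-40 at 4°C. Values are log-two fold changes in thermal stability relative to solvent controls, from duplicates.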

[2] = compound: C/C(=N\NC(=O)C1=CC(=CC=C1)S(=O)(=O)N2CCOCC2)/C3=C(C=CC(=C3)Cl)O
How it was run: as §1

[3] = compound: C1=CC(=CC=C1C2=NC3=C(N2)C=C(C=C3)C(=O)N)OC4=CC=C(C=C4)Cl
How it was run: as §1

[4] = compound: C1=CC2=C(C=CC(=C2)/C=C\3/C(=O)NC(=NCC4=CC=CS4)S3)N=C1
How it was run: as §1

[5] = compound: C1=CC2=NC=CN=C2C=C1/C=C/3\C(=O)NC(=O)S3
How it was run: as §1

[6] = compound: C1=CC=C(C=C1)C2=NC(=C(N2)C3=CC=NC=C3)C4=CC(=C(C=C4)Cl)O
How it was run: as §1

[7] = compound: C1=CC=C2C(=C1)C3=NNC4=CC=CC(=C43)C2=O
How it was run: as §1

[8] = compound: C1CCN(C1)C(=O)NC2=CC=CC(=C2)NC3=NC=C(C(=N3)NCCC4=CN=CN4)Br
How it was run: as §1

[9] = compound: C1CN(CCC1(CC2=CC=C(C=C2)Cl)N)C3=NC=NC4=C3C=CN4
How it was run: as §1

[10] = compound: C1COCCN1CCN2C3=CC=CC=C3N=C2NC(=O)C4=CC(=CC=C4)[N+](=O)[O-] [IRAK-1-4 Inhibitor I]
How it was run: as §1

Measured: log2 fold change

WRAP73 (UniProt Q9P2S5)
inactive: [1] 0.022 | [2] -0.061 | [3] -0.097 | [4] -0.007 | [5] -0.049 | [6] -0.024 | [7] -0.008 | [8] -0.015 | [9] 0.005 | [10] 0.045

WDTC1 (UniProt Q8N5D0)
inactive: [1] 0.025 | [2] 0.006 | [3] -0.044 | [4] 0.04 | [5] 0.006 | [6] 0.058 | [7] -0.01 | [8] -0.021 | [9] 0.038 | [10] 0.008

VMA21 (UniProt Q3ZAQ7)
inactive: [1] -0.008 | [2] -0.076 | [3] 0.239 | [4] 0.009 | [5] 0.054 | [6] -0.065 | [7] 0.038 | [8] -0.161 | [9] 0.02 | [10] -0.006

WDR12 (UniProt Q9GZL7)
inactive: [1] -0.017 | [2] 0.013 | [3] 0.01 | [4] -0.02 | [5] -0.009 | [6] 0.012 | [7] 0.009 | [8] -0.012 | [9] 0.005 | [10] 0

WDHD1 (UniProt O75717)
inactive: [1] 0.013 | [2] 0.025 | [3] -0.004 | [4] 0.019 | [5] 0.002 | [6] 0.006 | [7] -0.005 | [8] 0 | [9] 0.025 | [10] -0.017

WRN (UniProt Q14191)
inactive: [1] -0.003 | [2] -0.048 | [3] 0.005 | [4] 0.006 | [5] 0.057 | [6] 0.011 | [7] -0.077 | [8] 0.02 | [9] -0.012 | [10] -0.013

WEE1 (UniProt P30291)
inactive: [1] 0.079 | [2] -0.014 | [3] -0.091 | [4] -0.051 | [5] 0.019 | [6] 0.01 | [7] -0.006 | [8] -0.07 | [9] 0.021 | [10] 0.056

WRAP53 (UniProt Q9BUR4)
inactive: [1] -0.026 | [2] 0.075 | [3] -0.022 | [4] -0.011 | [5] 0.012 | [6] 0.053 | [7] 0.007 | [8] 0.067 | [9] 0.124 | [10] 0

Two records picked at random from the list so far:
WDTC1 (UniProt Q8N5D0)
inactive: [1] 0.025 | [2] 0.006 | [3] -0.044 | [4] 0.04 | [5] 0.006 | [6] 0.058 | [7] -0.01 | [8] -0.021 | [9] 0.038 | [10] 0.008

WEE1 (UniProt P30291)
inactive: [1] 0.079 | [2] -0.014 | [3] -0.091 | [4] -0.051 | [5] 0.019 | [6] 0.01 | [7] -0.006 | [8] -0.07 | [9] 0.021 | [10] 0.056

(list continues)

VPS26B (UniProt Q4G0F5)
inactive: [1] 0.002 | [2] -0.039 | [3] 0.014 | [4] 0.011 | [5] 0.018 | [6] -0.019 | [7] -0.027 | [8] -0.016 | [9] -0.01 | [10] 0.015

VWA5A (UniProt O00534)
inactive: [1] -0.021 | [2] -0.026 | [3] 0.013 | [4] 0.005 | [5] -0.012 | [6] 0.043 | [7] -0.061 | [8] -0.004 | [9] 0.048 | [10] 0.011

VPS26C (UniProt O14972)
inactive: [1] 0.01 | [2] 0.046 | [3] 0 | [4] 0.015 | [5] -0.026 | [6] -0.004 | [7] -0.015 | [8] 0.032 | [9] 0.114 | [10] 0.048

WDR41 (UniProt Q9HAD4)
inactive: [1] -0.071 | [2] -0.044 | [3] -0.021 | [4] 0.015 | [5] -0.027 | [6] -0.113 | [7] 0.031 | [8] -0.091 | [9] 0.049 | [10] 0.029

WDR55 (UniProt Q9H6Y2)
inactive: [1] -0.004 | [2] -0.15 | [3] -0.017 | [4] -0.008 | [5] -0.008 | [6] 0.019 | [7] 0.002 | [8] -0.022 | [9] 0.004 | [10] -0.039

WDR33 (UniProt Q9C0J8)
inactive: [1] 0.043 | [2] 0.007 | [3] 0.047 | [4] 0.033 | [5] -0.028 | [6] 0.019 | [7] -0.038 | [8] -0.027 | [9] 0.093 | [10] 0.01

WASHC4 (UniProt Q2M389)
inactive: [1] 0.027 | [2] 0.021 | [3] -0.02 | [4] -0.015 | [5] -0.02 | [6] 0.013 | [7] -0.009 | [8] 0.022 | [9] 0.022 | [10] -0.008

WDR7 (UniProt Q9Y4E6)
inactive: [1] 0.05 | [2] -0.076 | [3] -0.016 | [4] -0.059 | [5] -0.001 | [6] -0.005 | [7] -0.038 | [8] 0.018 | [9] 0.042 | [10] 0.01

WDR89 (UniProt Q96FK6)
inactive: [1] 0.05 | [2] -0.019 | [3] -0.009 | [4] -0.059 | [5] -0.116 | [6] -0.032 | [7] 0.072 | [8] 0.048 | [9] -0.025 | [10] 0.012

VPS39 (UniProt Q96JC1)
inactive: [1] 0.015 | [2] -0.022 | [3] -0.005 | [4] -0.003 | [5] -0.002 | [6] 0.015 | [7] -0.007 | [8] -0.034 | [9] 0.031 | [10] 0.019

WDR5 (UniProt P61964)
inactive: [1] -0.018 | [2] 0.015 | [3] 0.02 | [4] -0.022 | [5] -0.036 | [6] 0.019 | [7] 0.025 | [8] -0.033 | [9] -0.014 | [10] 0.043

WDR36 (UniProt Q8NI36)
inactive: [1] 0 | [2] 0.02 | [3] -0.031 | [4] 0.027 | [5] -0.025 | [6] 0.017 | [7] 0.008 | [8] 0.014 | [9] 0.004 | [10] -0.049

WASHC2C (UniProt Q9Y4E1)
inactive: [1] -0.028 | [2] 0 | [3] -0.014 | [4] -0.036 | [5] -0.032 | [6] 0.006 | [7] -0.044 | [8] -0.051 | [9] 0.032 | [10] 0.039

WDSUB1 (UniProt Q8N9V3)
inactive: [1] 0.006 | [2] 0.035 | [3] 0.013 | [4] -0.003 | [5] 0.011 | [6] 0.004 | [7] 0.012 | [8] 0.008 | [9] 0.027 | [10] 0

WDCP (UniProt Q9H6R7)
inactive: [1] -0.06 | [2] 0.091 | [3] 0.079 | [4] 0.018 | [5] 0.024 | [6] 0 | [7] -0.011 | [8] -0.022 | [9] 0.002 | [10] 0.024

WDR13 (UniProt Q9H1Z4)
inactive: [1] -0.053 | [2] -0.048 | [3] -0.001 | [4] 0.084 | [5] -0.032 | [6] 0.024 | [7] 0.092 | [8] -0.021 | [9] 0.039 | [10] -0.054

WASHC3 (UniProt Q9Y3C0)
inactive: [1] -0.017 | [2] -0.033 | [3] 0.012 | [4] -0.051 | [5] 0.02 | [6] 0.042 | [7] 0.091 | [8] 0.054 | [9] 0.097 | [10] 0.067

XPC (UniProt Q01831)
inactive: [1] 0.061 | [2] -0.151 | [3] 0.079 | [4] 0.075 | [5] -0.021 | [6] 0.109 | [7] -0.005 | [8] 0.034 | [9] -0.064 | [10] 0.026

WTAP (UniProt Q15007)
inactive: [1] 0.005 | [2] 0.056 | [3] 0.024 | [4] 0.008 | [5] -0.005 | [6] 0.02 | [7] -0.019 | [8] 0.004 | [9] -0.023 | [10] 0.002

WDR81 (UniProt Q562E7)
inactive: [1] 0.029 | [2] -0.028 | [3] 0.028 | [4] 0.012 | [5] 0 | [6] 0.03 | [7] -0.011 | [8] -0.019 | [9] 0.04 | [10] 0.001

WIPF3 (UniProt A6NGB9)
inactive: [1] -0.018 | [2] 0.09 | [3] 0.016 | [4] -0.001 | [5] -0.029 | [6] -0.007 | [7] 0.007 | [8] 0.052 | [9] 0.097 | [10] -0.012

VPS35L (UniProt Q7Z3J2)
inactive: [1] 0.005 | [2] -0.016 | [3] -0.028 | [4] -0.001 | [5] 0.002 | [6] 0.006 | [7] -0.038 | [8] -0.028 | [9] 0.006 | [10] 0.04
